These are yes or no findings as the source states them, for the method shown. In cells and extracts the contact can be indirect. Here binding means that the protein was enriched with, or labelled near, the bait; the list need not be complete.
Target: Flag-tagged Beclin 1 (expressed in NIH3T3 cells) (not stated (human or mouse cDNA cloned)) (UniProt O88597)
Test: affinity purification with mass spectrometry; NIH3T3 cells stably expressing Flag-tagged Beclin 1 or vector; nuclear proteins immuno-isolated with anti-Flag beads; silver-stained SDS-PAGE bands identified by mass spectrometry

Amino acid sequences for entries named in this document (tags omitted).
UniProt O88597: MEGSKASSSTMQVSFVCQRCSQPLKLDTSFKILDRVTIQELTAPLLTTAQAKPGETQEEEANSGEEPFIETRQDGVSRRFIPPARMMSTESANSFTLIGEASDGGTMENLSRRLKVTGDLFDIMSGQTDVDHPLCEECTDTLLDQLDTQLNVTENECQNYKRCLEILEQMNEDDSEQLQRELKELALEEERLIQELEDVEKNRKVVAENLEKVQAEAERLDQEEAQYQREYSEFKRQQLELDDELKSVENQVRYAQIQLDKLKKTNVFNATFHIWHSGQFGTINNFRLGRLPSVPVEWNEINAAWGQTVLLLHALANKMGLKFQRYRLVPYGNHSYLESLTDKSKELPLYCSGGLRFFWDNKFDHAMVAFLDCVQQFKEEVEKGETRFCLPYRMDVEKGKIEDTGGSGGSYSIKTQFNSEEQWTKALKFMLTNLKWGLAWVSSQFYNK
UniProt Q64511: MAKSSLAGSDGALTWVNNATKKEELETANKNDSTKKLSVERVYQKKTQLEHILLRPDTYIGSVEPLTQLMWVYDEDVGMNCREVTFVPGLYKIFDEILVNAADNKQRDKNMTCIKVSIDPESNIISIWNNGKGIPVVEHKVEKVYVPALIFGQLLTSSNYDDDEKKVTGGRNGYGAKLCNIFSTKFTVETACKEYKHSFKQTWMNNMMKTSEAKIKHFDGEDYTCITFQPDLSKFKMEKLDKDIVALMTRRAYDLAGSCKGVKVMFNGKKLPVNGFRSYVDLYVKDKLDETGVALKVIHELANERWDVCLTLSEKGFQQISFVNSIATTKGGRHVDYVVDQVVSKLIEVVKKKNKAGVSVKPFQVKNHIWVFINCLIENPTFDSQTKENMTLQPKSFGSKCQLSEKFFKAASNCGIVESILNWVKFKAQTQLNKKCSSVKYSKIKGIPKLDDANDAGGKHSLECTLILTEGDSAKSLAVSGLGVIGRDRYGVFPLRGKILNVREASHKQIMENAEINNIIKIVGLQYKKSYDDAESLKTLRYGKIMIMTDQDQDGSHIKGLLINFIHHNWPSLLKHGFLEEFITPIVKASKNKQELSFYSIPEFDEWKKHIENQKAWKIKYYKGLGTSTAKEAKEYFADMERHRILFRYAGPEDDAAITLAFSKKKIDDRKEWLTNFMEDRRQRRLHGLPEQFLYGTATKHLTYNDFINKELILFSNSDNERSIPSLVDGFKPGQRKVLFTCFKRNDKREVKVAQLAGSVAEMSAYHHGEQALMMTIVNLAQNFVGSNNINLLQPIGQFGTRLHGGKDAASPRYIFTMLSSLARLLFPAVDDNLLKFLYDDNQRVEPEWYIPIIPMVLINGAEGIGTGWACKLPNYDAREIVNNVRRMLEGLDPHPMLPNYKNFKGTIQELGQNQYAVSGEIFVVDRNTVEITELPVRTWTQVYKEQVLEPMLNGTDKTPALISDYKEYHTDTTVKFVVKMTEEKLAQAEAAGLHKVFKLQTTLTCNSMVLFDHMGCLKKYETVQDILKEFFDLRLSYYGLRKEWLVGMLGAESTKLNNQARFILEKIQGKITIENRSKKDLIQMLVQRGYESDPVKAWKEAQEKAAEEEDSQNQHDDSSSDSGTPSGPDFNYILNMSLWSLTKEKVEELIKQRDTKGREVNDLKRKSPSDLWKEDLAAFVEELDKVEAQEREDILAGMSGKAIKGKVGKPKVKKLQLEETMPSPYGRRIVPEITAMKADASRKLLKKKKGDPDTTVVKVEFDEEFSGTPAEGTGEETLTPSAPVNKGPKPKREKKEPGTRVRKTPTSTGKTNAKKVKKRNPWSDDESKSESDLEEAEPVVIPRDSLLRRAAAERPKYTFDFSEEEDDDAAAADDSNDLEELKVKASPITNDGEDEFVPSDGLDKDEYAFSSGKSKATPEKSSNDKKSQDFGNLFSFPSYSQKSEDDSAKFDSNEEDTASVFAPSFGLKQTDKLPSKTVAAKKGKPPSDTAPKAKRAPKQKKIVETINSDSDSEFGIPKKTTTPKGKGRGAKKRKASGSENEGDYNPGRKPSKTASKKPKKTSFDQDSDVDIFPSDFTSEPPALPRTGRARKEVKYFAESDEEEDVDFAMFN

binding: binds
Substance: DNA topoisomerase IIβ (endogenous, NIH3T3) (from UniProt Q64511 1-1612)

Source: article PMC5366945
